Literature values in patent US5177204A, “Derivatives of 4-(2,4-difluorbiphenylyl)-2-methyl-4-oxobutanoic acid” (Vyzkumng, USTAV pro farmacii a biochemii, Statni podnik, priority 1990, dated 1993).
At least one compound was matched to its structure with a doubt left.

Conditions: in words, parent acid, Cs. A0 243 570, 1988; cited from earlier work

In the case of `CC(CC(=O)c1ccc(-c2ccc(F)cc2F)cc1)C(=O)O` (stereo not shown) [Flobufen, 4(2,4-difluorobiphenylyl)-2-methyl-4-oxobutanic acid, reference compound], the anti-inflammatory effect is given as “significant prolonged anti-inflammatory efect”.
